In patent publication US20190201419A1, “COMPOUND AND METHOD FOR THE TREATMENT AND DIAGNOSIS OF NEURODEGENERATIVE CONDITIONS” (Swansea University, priority 2013, published 2019):

What was measured:
[1] = LC-ESI-MSn of cholestenoic acids in mouse plasma; settings: WT
[2] = LC-ESI-MSn of cholestenoic acids in mouse brain; settings: WT
Description: Animals. Lxra,−/−β−/− mouse cell cultures were from the colony at the Department of Biosciences and Nutrition at Novum, Karolinska Institutet. Male and female wild-type and Lxrα−/−β−/− mice were generated as previously described (Alberti et al. J. Clin. Invest 2001:107(5), 565-73). Mice were back crossed onto a C57BL/6 background for 10 generations. Male Cyp7b1−/− mouse brain and plasma were from animals generated at the University of Edinburgh. Male mice homozygous for targeted disruption of the Cyp7b1 gene congenic on the C57BL/6 genetic background (>15 generations backcrossed to C57BL/6) and wild-type littermate controls were generated from Cyp7b1−/+ crosses. Male cyp27a1−/− mouse tissue and plasma was purchased from The Jackson Laboratory (ME, USA) strain B6.129-Cyp27a1^tm1Elt/J. The Cyp27a1−/− colony was backcrossed to C57BL/6J inbred mice for approximately 12 generations by the donating investigator prior to sending to The Jackson Laboratory Repository. Upon arrival, mice were bred to C57BL/6J inbred mice for at least one generation to establish the colony. Wild type animals from the colony were used as controls.
Extraction of Sterols. […]
Charge Tagging of Sterols. The sterols were charge-tagged with the GP-hydrazine to enhance their response when analysed by LC-ESI-MS and tandem mass spectrometry (MS^n).

Row | Structure (SMILES) | Mean concentration in plasma ± SD ([1]; 13 months) | Mean concentration in plasma ± SD ([1]; 23 months) | Mean concentration in brain ± SD ([2]; 13 months) | Mean concentration in brain ± SD ([2]; 23 months)
1 | CC(CCC[C@@H](C)[C@H]1CC[C@H]2[C@@H]3[C@H](O)CC4=CC(=O)CC[C@]4(C)[C@H]3CC[C@]12C)C(=O)O (stereo partly drawn) [7αH,3O-CA, 7α-hydroxy-3-oxocholest-4-en-26-oic acid] | 25.89 ± 10.91 ng/mL | 25.19 ± 9.44 ng/mL |  | 
2 | CC(CCC[C@@H](C)[C@H]1CC[C@H]2[C@@H]3CC=C4C[C@@H](O)CC[C@]4(C)[C@H]3CC[C@]12C)C(=O)O (stereo partly drawn) [3β-HCA, 3β-hydroxycholest-5-en-26-oic acid] | 1.97 ± 0.72 ng/mL | 1.75 ± 0.50 ng/mL | 0.01 ± 0.00 ng/mg | 0.01 ± 0.00 ng/mg
